# From publication PMC10277598
# Sequences of proteins named here, by UniProt entry; tags and fusion partners are left off. A change or cut given only in a name is not applied to a line headed by its entry.
# UniProt P69913: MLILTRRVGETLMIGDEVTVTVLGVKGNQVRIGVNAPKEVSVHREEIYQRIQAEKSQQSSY
# For at least one entry, the source does not settle the construct or the ends of the probe.
# Assays:
# CsrA-His6 [1] = molecular target: CsrA-His6 (UniProt P69913); assay: EMSA; settings: 10 mM MgCl2, apparent Kd, linear regression (54.7 nM in Fig. S5); 0.5 nM labeled RNA, 0-400 nM CsrA, 10 mM MgCl2, 100 mM KCl, 32.5 ng total yeast RNA, 20 mM DTT, 7.5% glycerol, 4 U SUPERasin, 37 C 30 min; native PAGE in 1X TBE; recombinant protein; protein details: His6 (C-terminal by name); label: 5'-32P (binding), unlabeled as competitor; probe letters rebuilt from the primers and the genome; part of a longer molecule
# CsrA-His6 [2] = molecular target: CsrA-His6 (UniProt P69913); assay: competition with a labelled probe; settings: unlabeled hflK RNA competes with labeled hflK RNA; 0.5 nM labeled RNA, 0-400 nM CsrA, 10 mM MgCl2, 100 mM KCl, 32.5 ng total yeast RNA, 20 mM DTT, 7.5% glycerol, 4 U SUPERasin, 37 C 30 min; native PAGE in 1X TBE; recombinant protein; protein details: His6 (C-terminal by name); label: 5'-32P (binding), unlabeled as competitor; probe letters rebuilt from the primers and the genome; part of a longer molecule
sequence,measurement,setting,value
ACGGCGUAGCGUCUGAAGCGUGGAGUCAUAUCCUCUGGCGUCGAAAGACAACAGGGAUCACCGCAUAACAAAUAUGGAGCACAAACAUGGCGUGGAAUCAGCCCGGUAAUAACGGACAAGACCGCGACCCGUGG [hflK leader RNA (-86 to +48)],Kd,CsrA-His6 [1],0.055 µM
same,binding result,CsrA-His6 [2],binds
